# Among all 360,000 compounds or so, about 9,100 (2.5%) were called active. Inconclusive means that the source gave no clear call. Such entries were picked first, then a sample of the others. No stated cut-off is given here; in the data, active means max response below about -50%; inconclusive means no clear call, values can overlap the other calls; inactive means above that.
# Chains of the proteins cited; added tags and fusions are not shown.
# UniProt P35462, whole entry, looked up: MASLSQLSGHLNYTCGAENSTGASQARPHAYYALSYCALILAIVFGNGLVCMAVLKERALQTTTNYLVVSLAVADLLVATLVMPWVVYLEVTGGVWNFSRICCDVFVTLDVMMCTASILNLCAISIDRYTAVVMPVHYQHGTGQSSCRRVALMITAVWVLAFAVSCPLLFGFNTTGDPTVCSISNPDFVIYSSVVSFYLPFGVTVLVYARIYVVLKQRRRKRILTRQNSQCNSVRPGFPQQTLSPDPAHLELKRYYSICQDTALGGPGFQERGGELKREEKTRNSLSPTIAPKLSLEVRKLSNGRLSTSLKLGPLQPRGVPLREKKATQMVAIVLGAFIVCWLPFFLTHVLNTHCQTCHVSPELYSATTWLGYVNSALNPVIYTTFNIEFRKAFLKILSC
# Molecular target: D(3) dopamine receptor (Homo sapiens) (UniProt P35462)
# Assay: qHTS of D3 Dopamine Receptor Antagonist: qHTS
# Conditions: D3R cells, DiscoveRx beta-arrestin luminescence, antagonist mode; active compounds read low
# Method in brief: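 Cells plated overnight at 1500 cells/well, then exposed to library compounds with dopamine controls for 90 minutes at 37 degrees C. DiscoveRx reagent added for 30–60 minutes at room temperature; luminescence read, quantitative HTS format.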
# On the % scale 0 is the no-effect control and ±100 the full control effect.
row,SMILES,"max response, negative = inhibition"
1,CCNC(=S)N(CCc1c(C)[nH]c2ccc(C)cc12)Cc1cccnc1,inconclusive: -31.1%
2,O=C1CC(C(=O)Nc2ccc(F)c(Cl)c2)N=C(N2CCCCC2)N1 (stereo not drawn),inconclusive: -38.1%
3,CCOC(=O)C1CCN(Cc2ccc(O)c(OC)c2)CC1,inconclusive: -46.6%
4,O=C(NC(=S)Nc1ccccc1N1CCOCC1)c1ccc(Br)cc1,inconclusive: -39.2%
5,O=C(c1cc([N+](=O)[O-])ccc1N1CCCCC1)N1CCc2ccccc21,inconclusive: -31.2%
6,O=C(CSc1nc2[nH]ncc2c(=O)[nH]1)NCc1ccc(F)cc1,active: -50.1%
7,CCN(CC)CCSc1nnc2c3cc(F)ccc3n(Cc3ccccc3)c2n1,inconclusive: -45%
8,O=[N+]([O-])c1cc(/C=N/NC(=S)Nc2ccccc2Cl)ccc1Cl,inconclusive: -40.4%
9,COC(=O)[C@@H](NC(=O)NC(C)CCc1ccccc1)C(C)C (stereo partly drawn),inconclusive: -30.5%
10,COc1cccc(CN2CCN(C3CCN(c4ccccc4C)CC3)CC2CCO)c1 (stereo not drawn),active: -59.6%
11,CCCc1nnc(SCC(=O)Nc2ccc(OCC)cc2)n1N,inconclusive: -45.2%
12,C/C(=N\NC(N)=S)c1cc(-c2ccccc2)c(-c2ccccc2)s1,inconclusive: -38.1%
13,CSc1cccc(NC(=S)N2CCCN(Cc3ccc(F)cc3)C2)c1,inconclusive: -30.5%
14,Cc1nc(C(C)NC(=O)c2cc(COc3ccc(F)c(F)c3)on2)cs1 (stereo not drawn),inactive: 4.83%
15,CC1(C(=O)NS(=O)(=O)Cc2ccccc2C(F)(F)F)CCN1C(=O)Cc1cccs1 (stereo not drawn),inactive: 0%
16,C[C@@]12C(=O)OC(=O)[C@]1(C)C1CCC2O1,active: -86.7%
17,Cc1ccc2c(c1)CCCN2C(=O)CCc1nc2ccccc2c(=O)[nH]1,inactive: 10.1%
18,CCc1cc2c(COC(=O)c3cccc(NS(C)(=O)=O)c3)cc(=O)oc2cc1O,inactive: 35.7%
19,O=C(Cn1nnc(-c2ccccc2Cl)n1)N/N=C/c1ccc(-c2cccc(Cl)c2)o1,inconclusive: -30.9%
20,COc1cccc(CN2CCC(C(=O)Nc3ccc(Oc4cccnc4)cc3)CC2)c1,inconclusive: -40.5%
21,COc1cccc(NC(=O)CN2C(=O)C(=O)N(C3CCCC3)C2=O)c1,inconclusive: -42.3%
22,Cc1ccc(C(=O)NC2CCN(C(=O)N3CCOCC3)CC2)cc1,inactive: 11.7%

row,SMILES,"max response, negative = inhibition"
1,CCN(CC)CC#CCOC(=O)C(O)(c1ccccc1)C1CCCCC1 (stereo not drawn),inconclusive: -34.7%
2,O=C(CSc1nnc(-c2cccc(Br)c2)o1)NCC1CCCO1 (stereo not drawn),inconclusive: -36.1%
3,CN(C)CCOc1ccccc1-c1ccccc1,inconclusive: -32.5%
4,CCN(CC)CCOC(=O)c1ccc(NC(=O)C2(c3ccccc3)CCCC2)cc1,inconclusive: -45.7%
5,CC1=C(C(=O)OC(C)C)C(c2cccs2)C(C(=O)OC(C)C)=C(C)N1,inactive: 36.3%
6,O=C1NC(=S)SC1=Cc1cccs1,inconclusive: -31.3%
7,CC(=O)Nc1ccc(NC(=O)c2ccc(NS(=O)(=O)c3cc(C(C)(C)C)cc(C)c3C)cc2)cc1,inconclusive: -48.6%
8,Oc1ccc(CNc2ccc(F)cc2)c2cccnc12,inactive: 13.7%
9,O=C(Nc1ccc(S(=O)(=O)N2CCOCC2)cc1)c1ccc(Br)o1,inconclusive: -36.9%
10,S=C(NCCSCc1ccc(Cl)cc1)Nc1ccccc1,inconclusive: -33.5%
11,O=C(NCCc1ccccc1)c1nc2nc(-c3cccs3)cc(C(F)(F)F)n2n1,inconclusive: -37.8%
12,OC(COCCC12CC3CC(CC(C3)C1)C2)CN1CCCCC1 (stereo not drawn),inconclusive: -45.1%
13,O=C1S/C(=C\c2ccc(N3CCOCC3)o2)C(=O)N1c1ccccc1,inactive: -17.1%
14,O=C(NCc1ccccc1)c1onc(CS(=O)(=O)c2ccccn2)c1C(=O)NCc1ccccc1,inactive: 0%
15,NS(=O)(=O)c1ccc(N/N=C/c2cn(-c3ccccc3)nc2-c2cccs2)c([N+](=O)[O-])c1,inconclusive: -42.1%
16,O=S(=O)(c1ccccc1)N(Cc1ccc(Cl)cc1)c1ccncc1,inactive: 0.927%
17,CC(C)(OC(=O)c1ccc(C#N)cc1)c1cc2ccccc2c(=O)o1,inconclusive: -41.6%
18,CCOc1ccc(/C(O)=C/C(=O)C(=O)Nc2ccc(S(=O)(=O)NC(C)=O)cc2)cc1,active: -60%
20,CC(=O)Nc1cc(OC(C)=O)c2nonc2c1OC(C)=O,inconclusive: -48.4%
21,CNC(=O)CC1C(=O)N(C)C(=S)N1NC(=O)c1ccc(Cl)cc1 (stereo not drawn),inconclusive: -33.3%

# Arranged by number of heavy atoms (smallest number first): 3 of the compounds above.
row,SMILES,"max response, negative = inhibition"
20,CC(=O)Nc1cc(OC(C)=O)c2nonc2c1OC(C)=O,inconclusive: -48.4%
2,O=C(CSc1nnc(-c2cccc(Br)c2)o1)NCC1CCCO1 (stereo not drawn),inconclusive: -36.1%
13,O=C1S/C(=C\c2ccc(N3CCOCC3)o2)C(=O)N1c1ccccc1,inactive: -17.1%
